# According to PubChem BioAssay AID2685 (National Center for Advancing Translational Sciences (NCATS), 2010):
# Some of the results follow. Shown are side measurements of this screen, not its main read-out; they come without a call. Compounds called inactive in the main read-out are mostly missing here. Words in brackets tell the shape of the fitted curve; partial curves, single points and poor fits give uncertain potencies.
# Assay: qHTS Assay for Lipid Storage Modulators in Drosophila S3 Cells;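 for cell number change: cells counted by Cell Tracker Red CMTPX staining in the red channel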
# Settings: BODIPY lipid droplet fluorescence, 18-24 h; for cell number change: measured here: cell count max response, cells fed with added oleic acid
# How it was run: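 Drosophila S3 cells loaded with oleic acid (400 uM, as added) and compounds at several concentrations; lipid droplets imaged by 488-nm laser-scanning cytometry, 500–530 nm intensity and object ratio to cell channel. Percent activity normalized to 20 uM Triacsin C.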
# [1] = measured here: cell number channel AC50, cells fed with added oleic acid
# [2] = measured here: lipid fluorescence (Fed channel) AC50, cells fed with added oleic acid
SMILES,cell number change [%],AC50 [1],AC50 [2]
COc1cc(C(=O)Nc2ccc(NC(=O)c3ccccc3Cl)nc2)cc(OC)c1OC,-1.32,"0.206 µM [rising, full curve, poor fit]",–
CC1CC(C)CN(CCCNC(=O)c2ccc(CNS(=O)(=O)c3ccc(F)cc3)cc2)C1 (configuration not stated),0.295,–,"29.1 µM [rising, single point]"
C=CCSC1=C(C#N)C2(CCCCC2)C(C#N)C(=O)N1 (configuration not stated),17.8,–,"0.517 µM [rising, partial curve]"
CCOc1cc(N2CCOCC2)c(OCC)cc1NC(=O)C(NC(=O)c1ccco1)C(C)C (configuration not stated),63.9,"32.6 µM [rising, single point]","18.4 µM [rising, partial curve]"
COc1ccc(N2C(=O)C3CCCN3C2c2ccccc2)cc1 (configuration not stated),7.55,–,–
COC1CCCCC1NS(=O)(=O)c1ccc(Cl)cc1 (configuration not stated),16,–,"0.013 µM [falling, full curve, poor fit]"
CC(C)C(C(=O)NC1CCCC1)N(CC1CCCO1)C(=O)CNS(=O)(=O)c1ccccc1 (configuration not stated),-21.9,"0.164 µM [falling, full curve, poor fit]",–
CCc1ccc(/C=C2/SC(=S)N(CCC(=O)Nc3cccnc3)C2=O)cc1,16,–,–
Clc1cccc(Cl)c1CNc1ccc(N2CCCC2)cc1,7.12,–,–
CC12CCC(C(=O)N(Cc3ccccc3)Cc3ccccc3)(OC1=O)C2(C)C (configuration not stated),50.9,"29.1 µM [rising, single point]","0.517 µM [falling, single point]"
Nc1ccc2nc(SCC(=O)c3ccccc3)sc2c1,–,–,"4.11 µM [rising, full curve]"
CCc1ccc(C2=Nn3c(nnc3-c3cccs3)SC2)cc1,12,–,–
COc1cccc(NC(=O)COC(=O)CCCc2c[nH]c3ccccc23)c1,39.4,"29.1 µM [rising, single point]",–
CC(=O)Nc1ccccc1OCc1nnc(-c2cccs2)o1,–,"0.731 µM [rising, full curve, poor fit]",–
CNC1=C(N(C(C)=O)c2ccc(Br)cc2)C(=O)c2ccccc2C1=O,-42.9,"11.6 µM [falling, partial curve, poor fit]","8.2 µM [falling, partial curve, poor fit]"
Cc1ccc(S(=O)(=O)NCC(=O)N2CCN(c3ccc(F)cc3)CC2)cc1,33,"13 µM [rising, partial curve, poor fit]","29.1 µM [rising, single point]"
Cc1cnc(C(=O)NC2CC(C)(C)Cc3c2cnn3-c2cccc(F)c2)cn1 (configuration not stated),-29.1,–,"3.66 µM [falling, partial curve]"

# Looked up by compound from above (2):
SMILES,cell number change [%],AC50 [1],AC50 [2]
Cc1cnc(C(=O)NC2CC(C)(C)Cc3c2cnn3-c2cccc(F)c2)cn1 (configuration not stated),-29.1,–,"3.66 µM [falling, partial curve]"
CC(C)C(C(=O)NC1CCCC1)N(CC1CCCO1)C(=O)CNS(=O)(=O)c1ccccc1 (configuration not stated),-21.9,"0.164 µM [falling, full curve, poor fit]",–
